Laboratory results: PubChem BioAssay AID652243 (Drosophila RNAi Screening Center, 2013)
The screen tested about 24,000 reagents; shown is a random part of those with a known target gene and a result. Over the whole deposit, 246 (1%) were called active. 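Plates not normalised; calls are printed but the firefly/Renilla ratio behind them is not deposited; fold cut for lowering reported inconsistently.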 Raw values vary from plate to plate and are shown uncorrected. A plus sign joins genes that one reagent is predicted to hit. Not stated in the record: the amount of reagent.

Assay: 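Knock-downs that decrease or increase androgen receptor reporter signal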 (primary screen)
Cells: Drosophila S2R+ cells
Knock-down reagent: long dsRNA against Drosophila genes
Timing: 72 h (48 h, then 24 h hormone)
Conditions: synthetic androgen R1881 at 10 nM for 24 h
Measurement: 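Firefly light from an androgen-responsive reporter and Renilla control light per well, raw and unnormalised, for each of two replicates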
Scale: firefly reporter light: higher = more light from androgen-responsive reporter; Renilla control light: higher = more constitutive control signal (cell number, transfection)
Rule for the call: 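Hit when the log firefly-to-Renilla ratio dropped or increased by a fixed fold versus the mean of GFP or LacZ controls across duplicate plates; lowering cut given as 1.5 and as 3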
Calls: active = hit: reporter lowered or raised; inactive = no hit

gene | PubChem SID | firefly reporter light, replicate 1 | firefly reporter light, replicate 2 | Renilla control light, replicate 1 | Renilla control light, replicate 2 | outcome
CG4151 | SID104198143 | 3.65e5 | 4.15e5 | 2.56e6 | 1.73e6 | inactive
Rpt5 | SID104196634 | 20671 | 48033 | 4.12e5 | 4.22e5 | inactive
Rpt5 | SID104204813 | 2.43e5 | 2.77e5 | 3.77e5 | 4.86e5 | inactive
gammaSnap1 | SID104184478 | 1.12e6 | 8.28e5 | 8.04e5 | 8.56e5 | active
gammaSnap1 | SID104206925 | 3.92e5 | 5.46e5 | 1.54e6 | 2.02e6 | active
gammaSnap1 | SID104216562 | 8.20e5 | 8.13e5 | 1.71e6 | 1.71e6 | inactive
EndoB | SID104187137 | 50228 | 1.11e5 | 1.03e6 | 1.31e6 | inactive
CG14182 | SID104189973 | 1.72e5 | 1.52e5 | 1.65e6 | 1.68e6 | inactive
CG30265 | SID104201299 | 6.56e5 | 6.21e5 | 1.81e6 | 2.19e6 | inactive
Coq4 + frc | SID104190173 | 2.39e5 | 92093 | 2.18e6 | 1.31e6 | inactive
Coq4 + frc | SID104190174 | 4.03e5 | 2.04e5 | 2.27e6 | 1.91e6 | inactive
ARY (retired record) | SID104216611 | 9.22e5 | 7.54e5 | 2.04e6 | 1.35e6 | inactive
CRMP | SID104191865 | 1.17e5 | 55144 | 2.81e5 | 1.82e5 | inactive
CRMP | SID104192137 | 57019 | 38173 | 3.51e5 | 4.35e5 | inactive
CRMP | SID104206182 | 2.72e5 | 2.28e5 | 5.14e5 | 8.92e5 | inactive
CR33294 | SID104202307 | 3.18e5 | 1.05e6 | 4.79e5 | 2.07e6 | inactive
bip1 | SID104191119 | 6.67e5 | 5.49e5 | 1.49e6 | 1.17e6 | inactive
nop5 | SID104183374 | 1.94e5 | 2.69e5 | 1.74e6 | 1.41e6 | inactive
CG4928 | SID104199134 | 75895 | 67264 | 4.56e5 | 3.74e5 | inactive
CG4928 | SID104207551 | 7.17e5 | 6.77e5 | 1.66e6 | 1.49e6 | inactive
Pgant3 | SID104185734 | 7.99e5 | 8.27e5 | 1.23e6 | 1.55e6 | inactive
Pgant3 | SID104207796 | 3.57e5 | 4.27e5 | 9.14e5 | 9.88e5 | inactive
GstD9 | SID104193977 | 1.14e5 | 93189 | 2.45e6 | 1.85e6 | inactive
GstD9 | SID104203853 | 5.06e5 | 4.20e5 | 6.46e5 | 5.70e5 | inactive
CG13579 | SID104184007 | 1.76e5 | 2.24e5 | 1.15e6 | 1.41e6 | inactive
CG13579 | SID104204147 | 1.07e6 | 1.18e6 | 1.38e6 | 1.37e6 | inactive
caup | SID104202407 | 5.99e5 | 7.95e5 | 1.39e6 | 1.43e6 | inactive
Snr1 | SID104192161 | 23468 | 31606 | 1.97e5 | 1.90e5 | inactive

Hits, of those listed so far:
gene | PubChem SID | firefly reporter light, replicate 1 | firefly reporter light, replicate 2 | Renilla control light, replicate 1 | Renilla control light, replicate 2 | outcome
gammaSnap1 | SID104184478 | 1.12e6 | 8.28e5 | 8.04e5 | 8.56e5 | active
gammaSnap1 | SID104206925 | 3.92e5 | 5.46e5 | 1.54e6 | 2.02e6 | active

The listing continues:
gene | PubChem SID | firefly reporter light, replicate 1 | firefly reporter light, replicate 2 | Renilla control light, replicate 1 | Renilla control light, replicate 2 | outcome
CG10918 | SID104200264 | 1.10e5 | 1.07e5 | 4.45e5 | 4.37e5 | inactive
CG10918 | SID104203054 | 5.24e5 | 5.19e5 | 6.04e5 | 6.99e5 | inactive
fog | SID104200438 | 64554 | 62178 | 5.45e5 | 5.68e5 | inactive
Alp2 | SID104184146 | 3.56e5 | 3.69e5 | 2.36e6 | 2.22e6 | inactive
Alp2 | SID104205018 | 2.19e5 | 1.42e5 | 3.62e5 | 3.24e5 | inactive
CG9447 | SID104184800 | 1.32e5 | 1.60e5 | 9.06e5 | 1.23e6 | inactive
CG15385 | SID104180191 | 1.01e5 | 1.27e5 | 6.71e5 | 9.81e5 | inactive
CG15385 | SID104216855 | – | – | – | – | inactive
CG15385 | SID104216877 | – | – | – | – | inactive
CG34030 | SID104216424 | 7.35e5 | 7.23e5 | 1.84e6 | 1.44e6 | inactive
CG7840 | SID104182867 | 9.24e5 | 1.01e6 | 2.52e6 | 2.52e6 | inactive
CG32099 | SID104201127 | 6.80e5 | 6.78e5 | 1.81e6 | 1.51e6 | inactive
CG31974 | SID104180314 | 88479 | 92148 | 5.54e5 | 4.61e5 | inactive
CG14053 | SID104197700 | 2.22e5 | 2.32e5 | 2.86e6 | 3.25e6 | inactive
CG10005 | SID104193964 | 1.54e5 | 1.64e5 | 2.79e6 | 2.48e6 | inactive
SmydA-2 | SID104190088 | 2.12e5 | 1.70e5 | 2.23e6 | 1.69e6 | inactive
Gr89a | SID104194815 | 1.15e5 | 1.28e5 | 1.37e6 | 1.99e6 | inactive
Smg5 | SID104182916 | 1.14e6 | 1.12e6 | 1.83e6 | 2.09e6 | inactive
Smg5 | SID104206378 | 6.04e5 | 5.60e5 | 5.86e5 | 7.72e5 | inactive
Prosap | SID104186174 | 82197 | 1.11e5 | 1.36e6 | 1.36e6 | inactive
Prosap | SID104186873 | 1.03e6 | 1.07e6 | 2.12e6 | 2.19e6 | inactive
CG7044 | SID104195972 | 3.05e5 | 2.76e5 | 4.06e6 | 3.98e6 | inactive
NimB4 | SID104181676 | 7.88e5 | 1.14e6 | 1.47e6 | 1.72e6 | inactive
NimB4 | SID104203109 | 5.98e5 | 7.36e5 | 1.04e6 | 1.33e6 | inactive
Urm1 | SID104202298 | 5.61e5 | 8.81e5 | 6.01e5 | 1.14e6 | inactive
Urm1 | SID104208007 | 4.20e5 | 4.16e5 | 1.97e6 | 1.97e6 | active
Urm1 | SID104216672 | 4.42e5 | 3.72e5 | 1.16e6 | 1.14e6 | inactive
CG15741 | SID104199499 | 1.53e5 | 1.31e5 | 1.69e6 | 1.74e6 | inactive
CG15741 | SID104203081 | 3.13e5 | 2.84e5 | 6.06e5 | 5.01e5 | inactive
Lztr1 | SID104197968 | 2.07e5 | 2.50e5 | 3.41e6 | 3.79e6 | inactive
Lztr1 | SID104198439 | 2.65e5 | 2.29e5 | 2.71e6 | 3.04e6 | inactive
Lztr1 | SID104205250 | 3.74e5 | 3.31e5 | 4.59e5 | 4.95e5 | inactive
CG34011 | SID104216500 | 1.06e6 | 7.50e5 | 2.00e6 | 1.82e6 | inactive
Vha16-5 | SID104182778 | 2.27e5 | 2.53e5 | 1.45e6 | 1.09e6 | inactive
osy | SID104194695 | 1.97e5 | 1.66e5 | 2.20e6 | 1.83e6 | inactive
osy | SID104195771 | 2.58e5 | 2.37e5 | 3.42e6 | 3.45e6 | inactive
osy | SID104195773 | 26497 | 39359 | 3.08e5 | 3.29e5 | inactive
spz6 | SID104184325 | 7.09e5 | 7.73e5 | 1.26e6 | 1.52e6 | inactive
CG8360 | SID104182877 | 8.02e5 | 1.03e6 | 2.23e6 | 2.62e6 | inactive
CG8360 | SID104205414 | 3.81e5 | 3.04e5 | 7.33e5 | 5.53e5 | inactive
Gbeta5 | SID104197546 | 1.43e5 | 1.65e5 | 1.58e6 | 2.25e6 | inactive
Egfrap | SID104189755 | 2.21e5 | 1.88e5 | 2.33e6 | 2.06e6 | inactive
Egfrap | SID104189756 | 70428 | 1.02e5 | 1.12e6 | 1.60e6 | inactive
Egfrap | SID104203807 | 7.04e5 | 8.38e5 | 1.14e6 | 1.25e6 | inactive
emei | SID104190689 | 4.91e5 | 3.38e5 | 2.87e6 | 2.94e6 | inactive
emei | SID104202076 | 5.18e5 | 3.86e5 | 1.38e6 | 9.21e5 | inactive
